Results are given in words; binding and its absence hold for the method and conditions named. In cells and extracts the contact can be indirect. A result given as binding can be weak or reduced; the word gives no strength.
Target: receptor tyrosine kinase ErbB4 (mouse (endogenous in cortical synaptosomes of C57BL/6 mice)) (UniProt Q61527)
Test: co-IP

Amino acid sequences for entries named in this document (tags omitted). A change or cut given only in a name is not applied to a line headed by its entry.
UniProt Q61527: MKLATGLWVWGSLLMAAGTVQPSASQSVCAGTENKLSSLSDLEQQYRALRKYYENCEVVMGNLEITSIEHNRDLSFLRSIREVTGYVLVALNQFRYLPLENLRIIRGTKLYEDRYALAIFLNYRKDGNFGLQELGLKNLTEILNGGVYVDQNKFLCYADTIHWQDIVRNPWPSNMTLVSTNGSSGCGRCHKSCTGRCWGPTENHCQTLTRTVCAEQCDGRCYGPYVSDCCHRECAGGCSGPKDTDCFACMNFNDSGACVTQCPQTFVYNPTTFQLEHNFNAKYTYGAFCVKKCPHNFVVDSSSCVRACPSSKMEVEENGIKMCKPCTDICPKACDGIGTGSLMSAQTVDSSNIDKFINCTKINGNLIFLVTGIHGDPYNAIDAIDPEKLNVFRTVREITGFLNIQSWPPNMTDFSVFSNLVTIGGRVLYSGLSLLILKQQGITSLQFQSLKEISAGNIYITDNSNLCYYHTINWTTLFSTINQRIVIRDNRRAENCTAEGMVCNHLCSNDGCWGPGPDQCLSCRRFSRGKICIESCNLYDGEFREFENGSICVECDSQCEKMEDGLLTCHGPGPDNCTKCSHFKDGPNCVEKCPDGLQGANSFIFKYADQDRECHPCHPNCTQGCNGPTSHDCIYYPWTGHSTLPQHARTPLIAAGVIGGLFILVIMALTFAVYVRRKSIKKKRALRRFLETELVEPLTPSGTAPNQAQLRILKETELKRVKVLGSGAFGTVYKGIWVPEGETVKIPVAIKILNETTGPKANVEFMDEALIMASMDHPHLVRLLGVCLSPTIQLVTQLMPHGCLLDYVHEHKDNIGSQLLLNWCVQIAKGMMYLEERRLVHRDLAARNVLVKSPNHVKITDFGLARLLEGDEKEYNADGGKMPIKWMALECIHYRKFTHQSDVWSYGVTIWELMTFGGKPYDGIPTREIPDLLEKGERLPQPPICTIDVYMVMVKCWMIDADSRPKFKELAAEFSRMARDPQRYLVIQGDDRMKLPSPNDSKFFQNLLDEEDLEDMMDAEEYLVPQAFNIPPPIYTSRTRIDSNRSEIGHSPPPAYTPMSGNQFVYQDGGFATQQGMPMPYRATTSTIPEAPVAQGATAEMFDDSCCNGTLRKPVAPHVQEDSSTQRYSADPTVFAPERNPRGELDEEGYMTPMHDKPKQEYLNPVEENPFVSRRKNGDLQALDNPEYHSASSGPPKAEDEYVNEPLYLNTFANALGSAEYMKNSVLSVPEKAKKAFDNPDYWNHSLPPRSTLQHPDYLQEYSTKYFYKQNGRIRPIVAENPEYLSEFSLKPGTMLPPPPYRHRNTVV
UniProt Q61037: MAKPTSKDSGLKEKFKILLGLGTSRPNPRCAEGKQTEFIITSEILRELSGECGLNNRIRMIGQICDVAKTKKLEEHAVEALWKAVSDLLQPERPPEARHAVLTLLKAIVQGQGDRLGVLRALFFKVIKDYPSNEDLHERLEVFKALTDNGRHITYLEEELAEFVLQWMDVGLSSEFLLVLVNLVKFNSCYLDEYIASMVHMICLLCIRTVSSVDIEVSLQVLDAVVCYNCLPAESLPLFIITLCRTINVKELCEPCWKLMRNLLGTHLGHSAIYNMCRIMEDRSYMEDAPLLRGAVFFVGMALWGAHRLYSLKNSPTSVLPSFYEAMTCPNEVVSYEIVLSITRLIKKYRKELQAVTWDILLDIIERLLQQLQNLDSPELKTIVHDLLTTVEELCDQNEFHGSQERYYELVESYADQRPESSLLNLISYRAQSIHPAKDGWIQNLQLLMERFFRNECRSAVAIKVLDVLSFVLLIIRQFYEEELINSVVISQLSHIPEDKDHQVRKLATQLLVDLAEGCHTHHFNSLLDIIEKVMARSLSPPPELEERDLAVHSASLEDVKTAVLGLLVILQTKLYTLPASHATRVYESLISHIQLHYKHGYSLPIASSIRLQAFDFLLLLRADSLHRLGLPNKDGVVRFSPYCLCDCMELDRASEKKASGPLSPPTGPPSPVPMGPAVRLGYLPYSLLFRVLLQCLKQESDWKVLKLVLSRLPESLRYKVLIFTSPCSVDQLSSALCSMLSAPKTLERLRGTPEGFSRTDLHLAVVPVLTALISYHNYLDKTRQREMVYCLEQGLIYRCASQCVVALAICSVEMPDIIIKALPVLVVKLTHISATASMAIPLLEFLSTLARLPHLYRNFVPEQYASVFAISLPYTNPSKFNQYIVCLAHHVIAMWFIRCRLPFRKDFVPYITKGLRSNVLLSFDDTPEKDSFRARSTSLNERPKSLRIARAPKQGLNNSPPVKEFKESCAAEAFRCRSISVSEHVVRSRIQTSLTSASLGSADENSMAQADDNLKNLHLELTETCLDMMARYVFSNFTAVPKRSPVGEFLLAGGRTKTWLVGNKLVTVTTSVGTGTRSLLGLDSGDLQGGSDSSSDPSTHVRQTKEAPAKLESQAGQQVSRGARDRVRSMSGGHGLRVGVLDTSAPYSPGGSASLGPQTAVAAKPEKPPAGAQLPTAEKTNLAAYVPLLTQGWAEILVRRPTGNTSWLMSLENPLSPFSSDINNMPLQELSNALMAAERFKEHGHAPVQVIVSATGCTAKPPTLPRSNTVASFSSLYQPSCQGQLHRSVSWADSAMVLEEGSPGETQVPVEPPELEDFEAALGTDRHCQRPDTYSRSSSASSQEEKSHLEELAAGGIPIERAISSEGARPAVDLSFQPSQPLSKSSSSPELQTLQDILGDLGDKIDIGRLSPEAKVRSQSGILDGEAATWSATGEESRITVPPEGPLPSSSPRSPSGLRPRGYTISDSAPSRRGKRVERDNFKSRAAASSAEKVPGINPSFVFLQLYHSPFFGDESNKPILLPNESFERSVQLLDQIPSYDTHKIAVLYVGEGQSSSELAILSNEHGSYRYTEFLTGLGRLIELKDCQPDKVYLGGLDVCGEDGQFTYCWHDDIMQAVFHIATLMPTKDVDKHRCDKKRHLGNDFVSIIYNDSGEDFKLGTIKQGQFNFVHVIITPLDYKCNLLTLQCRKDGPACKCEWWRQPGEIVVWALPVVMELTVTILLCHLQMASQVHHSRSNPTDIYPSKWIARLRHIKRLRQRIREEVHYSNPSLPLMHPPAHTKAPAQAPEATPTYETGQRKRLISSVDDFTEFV

- binding: binds
Substance: Tsc2 (from UniProt Q61037 1-1814)
